Record: PubChem BioAssay AID1508588 (Peter MacCallum Cancer Centre, 2020)
Here is one part, drawn at random, of about 18,000 deposited reagents. Of all reagents, 790 (4.4%) were called active. 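Calls rest on a combination of fold-change classes in drug and vehicle arms, not all shown here.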

Aim: 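Which gene losses make BRAF-mutant melanoma cells more responsive to vemurafenib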 (primary screen)
System: human WM266.4 melanoma cells (BRAF V600 mutant)
Knock-down reagent: siRNA pool against human genes, 40 nM
Time to read-out: 96 h from transfection to read-out
Challenge: vemurafenib 300 nM (about IC25), added 48 h after transfection, for 48 h; comparison arm got DMSO vehicle only
Measured: 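Cell gain (DAPI nuclei at end minus before drug, mean of two replicates) and medium lactate by absorbance per cell, both as ratio to non-targeting siRNA, also grouped into fold-change classes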
Reading the numbers: cell gain with vemurafenib: higher = more cell gain than with non-targeting siRNA; lactate per cell with vemurafenib: higher = more lactate made per cell
Rule for the call: 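Enhancement is called by pairing each knock-down's vehicle-arm and drug-arm fold-change classes for viability or glycolysis; which class combinations qualify is not given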
Calls: active = enhances vemurafenib effect; inactive = no enhancement seen

The opening 3 entries, ahead of the listing:
target gene | cell gain with vemurafenib | lactate per cell with vemurafenib | call
PTTG2 (pituitary tumor-transforming 2) | 0.71 | 0.91 | inactive
TLCD3A (TLC domain containing 3A) | 0.34 | 0.84 | inactive
CRYL1 (crystallin lambda 1) | 0.27 | 1.73 | inactive

The list itself, repeating the preview:
target gene | cell gain with vemurafenib | lactate per cell with vemurafenib | call
PTTG2 (pituitary tumor-transforming 2) | 0.71 | 0.91 | inactive
TLCD3A (TLC domain containing 3A) | 0.34 | 0.84 | inactive
CRYL1 (crystallin lambda 1) | 0.27 | 1.73 | inactive
CCN4 (cellular communication network factor 4) | 0.72 | 1.45 | inactive
KIF21A (kinesin family member 21A) | 0.24 | 2 | inactive
TIMMDC1 | 0.69 | 1.12 | inactive
NOS2 (nitric oxide synthase 2) | 1.15 | 0.62 | inactive
CSPP1 (centrosome and spindle pole associated protein 1) | 0.5 | 0.86 | inactive
HIBADH (3-hydroxyisobutyrate dehydrogenase) | -0.06 | 0.74 | inactive
CHORDC1 (cysteine and histidine rich domain containing 1) | 0.85 | 0.44 | inactive
DNMT3B (DNA methyltransferase 3 beta) | 0.47 | 0.9 | inactive
TMEM60 (transmembrane protein 60) | 0.14 | 2.3 | inactive
MEGF10 (multiple EGF like domains 10) | 0.92 | 0.96 | inactive
THPO (thrombopoietin) | 1.01 | 0.92 | inactive
SPMIP5 (sperm microtubule inner protein 5) | 0.78 | 0.66 | inactive
OSGIN1 (oxidative stress induced growth inhibitor 1) | 0.73 | 0.98 | inactive
IGFBP6 (insulin like growth factor binding protein 6) | 0.1 | 0.62 | inactive
TPO (thyroid peroxidase) | 0.05 | 0.63 | inactive
LSP1 (lymphocyte specific protein 1) | 1.06 | 0.66 | inactive
PKNOX1 (PBX/knotted 1 homeobox 1) | 1.08 | 0.92 | inactive
PGBD3 (piggyBac transposable element derived 3) | 0.82 | 1.05 | inactive
POLR3GL (RNA polymerase III subunit GL) | 0.93 | 0.46 | inactive
SLC25A40 | 0.51 | 0.93 | inactive
TNNC1 (troponin C1, slow skeletal and cardiac type) | 0.5 | 0.87 | inactive
PIP (prolactin induced protein) | 0.52 | 1.15 | inactive
FAM90A1 (family with sequence similarity 90 member A1) | 0.96 | 1.03 | inactive
MACROD2 (mono-ADP ribosylhydrolase 2) | 0.67 | 0.82 | inactive
KCNJ16 (potassium inwardly rectifying channel subfamily J member 16) | 0.79 | 1.15 | inactive
MIIP (migration and invasion inhibitory protein) | 0.58 | 0.77 | inactive
NRP2 (neuropilin 2) | 0.28 | 1.6 | inactive
CHST12 (carbohydrate sulfotransferase 12) | 0.91 | 1.19 | inactive
WTIP (WT1 interacting protein) | 0.72 | 0.52 | inactive
PPM1G (protein phosphatase, Mg2+/Mn2+ dependent 1G) | 0.55 | 1.48 | inactive
MYCN (MYCN proto-oncogene, bHLH transcription factor) | 1.35 | 0.82 | inactive
SCAMP1 | 0.73 | 0.94 | inactive
GABRG1 (gamma-aminobutyric acid type A receptor subunit gamma1) | 0.87 | 1.29 | inactive
FNDC9 (fibronectin type III domain containing 9) | 0.09 | 2.04 | inactive
SLC16A7 | 0.62 | 0.22 | inactive
MAL (mal, T cell differentiation protein (MAL blood group)) | 0.9 | 0.74 | inactive
PHF21A (PHD finger protein 21A) | 1.04 | 0.76 | inactive
ALDH9A1 (aldehyde dehydrogenase 9 family member A1) | 0.24 | 1.91 | inactive
PNPO (pyridoxamine 5'-phosphate oxidase) | 0.8 | 1.32 | inactive
SMAD4 (SMAD family member 4) | 0.81 | 0.98 | inactive
CNNM2 | 0.66 | 1.44 | inactive
ARL14 (ARF like GTPase 14) | -0.11 | 0.16 | active
MGP (matrix Gla protein) | 0.1 | 0.88 | inactive
FOXA2 (forkhead box A2) | 0.44 | 1.05 | inactive
WNT8A (Wnt family member 8A) | 0.33 | 0.46 | active
SLC18B1 | 1.29 | 0.78 | inactive
SKA3 (spindle and kinetochore associated complex subunit 3) | 0.29 | 2 | inactive
ASZ1 | 0.24 | 0.69 | inactive
EXD2 (exonuclease 3'-5' domain containing 2) | 0.84 | 1.09 | inactive
RBP7 (retinol binding protein 7) | 1.12 | 0.66 | inactive
RCBTB2 (RCC1 and BTB domain containing protein 2) | 0.94 | 0.96 | inactive
HES6 (hes family bHLH transcription factor 6) | 0.6 | 1.62 | inactive
NECAB3 (N-terminal EF-hand calcium binding protein 3) | 1.06 | 1.01 | inactive
TRIM35 (tripartite motif containing 35) | 0.23 | 2.54 | inactive
BRMS1 (BRMS1 transcriptional repressor and anoikis regulator) | 0.56 | 0.86 | inactive
ANKFN1 (ankyrin repeat and fibronectin type III domain containing 1) | 0.71 | 0.36 | inactive
SCPEP1 (serine carboxypeptidase 1) | 1.01 | 0.78 | inactive
SERPINE2 (serpin family E member 2) | 0 | 1.95 | inactive
RFC3 (replication factor C subunit 3) | 1.31 | 0.16 | active
ARIH2 (ariadne RBR E3 ubiquitin protein ligase 2) | 0.92 | 0.8 | inactive
UTP6 (UTP6 small subunit processome component) | 1.25 | 0.4 | inactive
ING1 (inhibitor of growth family member 1) | 0.84 | 0.68 | inactive
PARD3B (par-3 family cell polarity regulator beta) | 1.32 | 0.72 | inactive
BMP10 (bone morphogenetic protein 10) | 0.2 | 2.37 | inactive
ICA1 (islet cell autoantigen 1) | 0.02 | 1.06 | active
PLXNC1 (plexin C1) | 0.29 | 1.77 | inactive
WWOX (WW domain containing oxidoreductase) | 0.63 | 1.22 | inactive
LSG1 (large 60S subunit nuclear export GTPase 1) | 0.59 | 1.13 | inactive
ASPDH (aspartate dehydrogenase domain containing) | 0.46 | 1.58 | inactive
EDIL3 (EGF like and discoidin domains 3) | 1.08 | 0.4 | inactive
RAB7A (RAB7A, member RAS oncogene family) | 0.47 | 1.06 | inactive
KCND3 (potassium voltage-gated channel subfamily D member 3) | 0.52 | 1.68 | inactive
IL23R (interleukin 23 receptor) | 0.75 | 0.96 | inactive
LINC01600 (long independently transcribed non-coding RNA 1600) | 0.37 | 1.1 | inactive
EPG5 (ectopic P-granules 5 autophagy tethering factor) | 0.21 | 2.31 | inactive
DIRAS2 (DIRAS family GTPase 2) | 0.75 | 0.84 | inactive
SEC11B | 0.94 | 1.06 | inactive
TMEM43 (transmembrane protein 43) | 0.92 | 0.66 | inactive
IGFN1 | 0.44 | 1.39 | inactive
EFCAB12 (EF-hand calcium binding domain 12) | 0.5 | 1.38 | inactive
MTNR1A (melatonin receptor 1A) | 1.06 | 0.52 | inactive
